In the supplement of paper PMC10849652:
The other results are listed elsewhere or left out.

Amino acid sequences for entries named in this document (tags omitted). A change or cut given only in a name is not applied to a line headed by its entry.
UniProt Q16656: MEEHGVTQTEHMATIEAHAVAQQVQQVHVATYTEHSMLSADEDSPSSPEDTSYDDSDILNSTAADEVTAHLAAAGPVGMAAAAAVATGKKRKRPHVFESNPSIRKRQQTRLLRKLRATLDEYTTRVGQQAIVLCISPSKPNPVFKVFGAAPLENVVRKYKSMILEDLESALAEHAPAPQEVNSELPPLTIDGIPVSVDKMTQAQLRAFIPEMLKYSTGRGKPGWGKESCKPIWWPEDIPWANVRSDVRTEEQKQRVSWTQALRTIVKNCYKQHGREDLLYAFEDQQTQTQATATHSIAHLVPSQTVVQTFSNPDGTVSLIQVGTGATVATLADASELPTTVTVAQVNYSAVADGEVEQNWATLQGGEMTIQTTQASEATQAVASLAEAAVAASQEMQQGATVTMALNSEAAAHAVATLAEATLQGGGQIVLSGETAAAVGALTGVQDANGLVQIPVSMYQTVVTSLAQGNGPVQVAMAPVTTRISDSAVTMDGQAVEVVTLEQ
UniProt Q9UMS0: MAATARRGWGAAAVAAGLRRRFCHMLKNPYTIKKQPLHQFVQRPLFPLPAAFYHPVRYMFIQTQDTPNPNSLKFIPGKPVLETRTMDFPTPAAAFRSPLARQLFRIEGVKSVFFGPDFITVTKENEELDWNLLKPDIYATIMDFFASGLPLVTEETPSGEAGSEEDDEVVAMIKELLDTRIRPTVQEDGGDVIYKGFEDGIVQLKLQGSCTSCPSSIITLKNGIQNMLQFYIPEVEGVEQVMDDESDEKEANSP
UniProt Q96IY1: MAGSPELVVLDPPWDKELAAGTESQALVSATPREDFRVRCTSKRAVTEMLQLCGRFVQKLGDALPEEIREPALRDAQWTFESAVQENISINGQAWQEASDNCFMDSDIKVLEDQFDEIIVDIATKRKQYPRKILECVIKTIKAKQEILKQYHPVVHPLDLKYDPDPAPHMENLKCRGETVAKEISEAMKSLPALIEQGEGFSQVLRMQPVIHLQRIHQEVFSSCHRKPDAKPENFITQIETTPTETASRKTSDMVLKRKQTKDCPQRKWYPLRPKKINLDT
UniProt P15531, whole entry, looked up: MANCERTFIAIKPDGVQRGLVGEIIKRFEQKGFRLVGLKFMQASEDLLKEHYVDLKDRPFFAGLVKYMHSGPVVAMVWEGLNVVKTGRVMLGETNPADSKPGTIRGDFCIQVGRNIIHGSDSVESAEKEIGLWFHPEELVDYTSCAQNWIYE
UniProt Q9BZ95: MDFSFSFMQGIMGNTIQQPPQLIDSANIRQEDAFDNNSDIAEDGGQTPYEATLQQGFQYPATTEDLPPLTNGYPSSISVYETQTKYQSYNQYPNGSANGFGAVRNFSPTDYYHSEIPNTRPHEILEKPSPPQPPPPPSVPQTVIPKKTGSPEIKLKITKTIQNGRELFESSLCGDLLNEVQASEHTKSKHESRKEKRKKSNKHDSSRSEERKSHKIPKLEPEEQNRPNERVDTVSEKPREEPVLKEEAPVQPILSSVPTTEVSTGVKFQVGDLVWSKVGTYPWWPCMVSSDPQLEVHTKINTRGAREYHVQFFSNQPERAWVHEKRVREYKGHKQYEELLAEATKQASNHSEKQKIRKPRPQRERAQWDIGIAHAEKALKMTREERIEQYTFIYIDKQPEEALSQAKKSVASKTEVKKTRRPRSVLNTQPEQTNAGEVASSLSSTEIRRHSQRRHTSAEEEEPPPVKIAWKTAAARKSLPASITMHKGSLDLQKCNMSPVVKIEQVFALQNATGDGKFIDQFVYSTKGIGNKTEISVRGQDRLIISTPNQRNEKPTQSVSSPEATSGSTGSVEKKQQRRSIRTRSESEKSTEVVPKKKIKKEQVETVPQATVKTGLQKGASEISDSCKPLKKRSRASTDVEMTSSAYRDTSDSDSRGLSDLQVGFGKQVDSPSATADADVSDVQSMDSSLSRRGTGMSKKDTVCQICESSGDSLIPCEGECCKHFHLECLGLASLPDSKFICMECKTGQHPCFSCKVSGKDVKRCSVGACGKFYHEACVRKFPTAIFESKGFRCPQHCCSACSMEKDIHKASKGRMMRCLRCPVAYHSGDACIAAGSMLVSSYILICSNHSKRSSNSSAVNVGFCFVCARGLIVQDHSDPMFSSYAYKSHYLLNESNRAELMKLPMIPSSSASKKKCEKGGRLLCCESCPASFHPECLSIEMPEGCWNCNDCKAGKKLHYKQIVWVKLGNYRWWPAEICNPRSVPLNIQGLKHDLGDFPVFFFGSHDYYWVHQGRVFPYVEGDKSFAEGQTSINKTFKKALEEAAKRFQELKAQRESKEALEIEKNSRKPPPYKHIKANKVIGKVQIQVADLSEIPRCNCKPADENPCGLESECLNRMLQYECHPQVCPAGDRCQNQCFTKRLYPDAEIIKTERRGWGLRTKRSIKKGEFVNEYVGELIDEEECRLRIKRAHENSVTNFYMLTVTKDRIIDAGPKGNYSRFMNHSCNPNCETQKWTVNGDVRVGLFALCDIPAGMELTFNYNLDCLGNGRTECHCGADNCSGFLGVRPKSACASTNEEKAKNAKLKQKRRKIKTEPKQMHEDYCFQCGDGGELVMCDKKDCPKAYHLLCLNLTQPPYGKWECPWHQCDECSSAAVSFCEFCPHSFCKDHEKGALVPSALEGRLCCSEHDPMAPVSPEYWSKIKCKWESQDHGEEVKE
UniProt Q9Y5B8, whole entry, looked up: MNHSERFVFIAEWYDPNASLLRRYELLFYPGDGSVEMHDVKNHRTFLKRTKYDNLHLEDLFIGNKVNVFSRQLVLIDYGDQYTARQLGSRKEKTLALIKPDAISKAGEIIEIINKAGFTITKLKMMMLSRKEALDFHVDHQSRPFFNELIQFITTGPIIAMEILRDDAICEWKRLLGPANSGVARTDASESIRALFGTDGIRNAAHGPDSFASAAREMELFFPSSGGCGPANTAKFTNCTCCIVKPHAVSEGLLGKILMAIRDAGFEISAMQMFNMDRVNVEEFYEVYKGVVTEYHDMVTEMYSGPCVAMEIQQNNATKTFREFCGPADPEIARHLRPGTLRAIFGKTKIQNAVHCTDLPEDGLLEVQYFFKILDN
UniProt Q9HBL8: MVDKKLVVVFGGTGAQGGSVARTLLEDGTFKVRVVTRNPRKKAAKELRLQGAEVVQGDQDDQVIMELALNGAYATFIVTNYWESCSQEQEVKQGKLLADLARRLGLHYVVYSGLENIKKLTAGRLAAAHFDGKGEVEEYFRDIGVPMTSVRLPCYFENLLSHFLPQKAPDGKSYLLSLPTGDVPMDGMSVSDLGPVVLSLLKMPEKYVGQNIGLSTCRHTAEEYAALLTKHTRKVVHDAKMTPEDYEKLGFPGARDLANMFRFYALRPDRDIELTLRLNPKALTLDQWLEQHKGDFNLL
UniProt Q13232: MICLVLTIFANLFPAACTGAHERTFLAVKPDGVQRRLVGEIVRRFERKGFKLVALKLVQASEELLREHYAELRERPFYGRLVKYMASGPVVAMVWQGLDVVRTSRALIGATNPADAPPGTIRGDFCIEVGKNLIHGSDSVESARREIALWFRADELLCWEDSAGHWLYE
UniProt O60524: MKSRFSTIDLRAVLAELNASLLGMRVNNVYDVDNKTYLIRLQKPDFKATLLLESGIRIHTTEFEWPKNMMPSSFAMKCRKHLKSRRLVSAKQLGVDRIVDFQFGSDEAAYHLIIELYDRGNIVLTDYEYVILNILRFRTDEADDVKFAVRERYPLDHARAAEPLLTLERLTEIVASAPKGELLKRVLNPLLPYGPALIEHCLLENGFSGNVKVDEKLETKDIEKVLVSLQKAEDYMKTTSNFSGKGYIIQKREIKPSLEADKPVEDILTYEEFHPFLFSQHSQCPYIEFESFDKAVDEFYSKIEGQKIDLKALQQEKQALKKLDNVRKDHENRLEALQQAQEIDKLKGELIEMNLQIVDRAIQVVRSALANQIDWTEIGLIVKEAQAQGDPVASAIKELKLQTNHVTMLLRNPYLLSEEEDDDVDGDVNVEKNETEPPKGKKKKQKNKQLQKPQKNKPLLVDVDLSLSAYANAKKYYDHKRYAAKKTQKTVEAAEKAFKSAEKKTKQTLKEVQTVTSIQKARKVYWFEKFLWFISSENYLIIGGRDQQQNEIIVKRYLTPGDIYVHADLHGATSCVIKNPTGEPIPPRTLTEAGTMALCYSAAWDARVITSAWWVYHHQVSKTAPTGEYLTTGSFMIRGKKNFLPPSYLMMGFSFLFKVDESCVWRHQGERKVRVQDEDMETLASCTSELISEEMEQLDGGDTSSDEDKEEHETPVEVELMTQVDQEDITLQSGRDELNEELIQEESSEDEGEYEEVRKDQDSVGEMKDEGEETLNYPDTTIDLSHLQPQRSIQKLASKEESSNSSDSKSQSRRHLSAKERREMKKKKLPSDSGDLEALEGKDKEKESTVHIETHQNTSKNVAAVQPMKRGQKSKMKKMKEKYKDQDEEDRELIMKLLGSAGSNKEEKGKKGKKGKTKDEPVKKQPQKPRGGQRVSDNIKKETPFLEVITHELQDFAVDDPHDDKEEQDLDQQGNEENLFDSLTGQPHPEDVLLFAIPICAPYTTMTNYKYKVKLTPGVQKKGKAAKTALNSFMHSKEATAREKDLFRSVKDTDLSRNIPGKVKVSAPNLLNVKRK
UniProt Q9BPW8: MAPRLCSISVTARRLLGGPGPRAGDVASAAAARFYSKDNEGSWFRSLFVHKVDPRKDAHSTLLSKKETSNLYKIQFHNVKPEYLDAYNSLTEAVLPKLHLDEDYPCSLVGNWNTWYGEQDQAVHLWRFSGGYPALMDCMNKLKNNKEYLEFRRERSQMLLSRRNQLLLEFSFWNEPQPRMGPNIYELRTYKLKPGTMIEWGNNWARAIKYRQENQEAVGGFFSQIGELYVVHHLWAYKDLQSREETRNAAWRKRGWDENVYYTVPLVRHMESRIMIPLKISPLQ
UniProt O00746: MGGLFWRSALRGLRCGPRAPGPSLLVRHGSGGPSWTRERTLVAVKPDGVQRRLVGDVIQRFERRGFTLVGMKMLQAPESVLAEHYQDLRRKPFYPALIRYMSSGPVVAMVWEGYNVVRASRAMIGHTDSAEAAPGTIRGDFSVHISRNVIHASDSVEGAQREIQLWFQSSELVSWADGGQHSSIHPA
UniProt Q9BVI4: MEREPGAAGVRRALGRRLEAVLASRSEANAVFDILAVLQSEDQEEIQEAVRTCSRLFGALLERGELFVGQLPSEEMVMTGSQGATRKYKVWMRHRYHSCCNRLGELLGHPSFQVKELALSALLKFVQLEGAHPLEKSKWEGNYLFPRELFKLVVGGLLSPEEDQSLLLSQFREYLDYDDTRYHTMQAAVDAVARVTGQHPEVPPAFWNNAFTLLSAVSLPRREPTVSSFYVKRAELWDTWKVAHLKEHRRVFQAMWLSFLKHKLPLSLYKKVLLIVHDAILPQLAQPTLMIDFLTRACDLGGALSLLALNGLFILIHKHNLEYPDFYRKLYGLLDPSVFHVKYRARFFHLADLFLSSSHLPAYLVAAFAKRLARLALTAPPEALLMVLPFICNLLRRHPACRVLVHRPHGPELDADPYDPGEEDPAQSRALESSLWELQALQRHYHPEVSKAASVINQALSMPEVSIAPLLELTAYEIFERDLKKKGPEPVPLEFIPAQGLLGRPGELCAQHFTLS
UniProt Q96MY1: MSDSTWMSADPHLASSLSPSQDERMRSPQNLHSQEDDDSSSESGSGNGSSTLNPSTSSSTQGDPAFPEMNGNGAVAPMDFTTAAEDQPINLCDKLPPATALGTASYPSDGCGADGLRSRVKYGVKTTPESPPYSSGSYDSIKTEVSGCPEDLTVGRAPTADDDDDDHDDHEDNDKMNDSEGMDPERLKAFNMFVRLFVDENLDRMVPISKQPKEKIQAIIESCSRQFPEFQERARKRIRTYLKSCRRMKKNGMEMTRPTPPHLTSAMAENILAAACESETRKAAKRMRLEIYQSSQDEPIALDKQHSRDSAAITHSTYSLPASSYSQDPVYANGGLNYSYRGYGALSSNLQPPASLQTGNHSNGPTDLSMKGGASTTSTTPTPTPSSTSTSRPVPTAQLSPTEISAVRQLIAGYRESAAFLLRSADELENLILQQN

Columns and labels:
Test in all cases: log2 fold change, soluble protein after heating vs DMSO (PISA); higher = thermal stabilisation; K562 cells, 10 uM, 30 min; active = over 0.2 and 3.5 SD of the protein, either way, in both replicates (recomputed)
[1] = compound: COC1=CC=C(C=C1)CN2C=CC3=C2C=C(C=C3)C(=O)NO
Outline: (§1)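 For each measurement, 10 μM compound was applied for 30 min to K562 cells at 2×10^6 cells/mL. Aliquots were heated for 3 min across 48°C-58°C, pooled, and extracted in PBS with 0.5% NP-40 at 4°C; the supernatant after 21,000xg for 90 min was soluble protein. This was quantified by TMTpro 16plex LC-MS/MS with channel sums equalised, and thermal stability was reported relative to control samples from duplicates, on a log2 fold-change scale.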

[2] = compound: CON(C)C(=O)N1N=C(c2cc(F)ccc2F)S[C@@]1(CCCN)c1ccccc1 [filanesib]
Outline: as §1

[3] = compound: CO[C@H]1C[C@@H]2CC[C@@H](C)[C@@](O)(O2)C(=O)C(=O)N2CCCC[C@H]2C(=O)O[C@H]([C@H](C)C[C@@H]2CC[C@H](n3cnnn3)[C@H](OC)C2)CC(=O)[C@H](C)/C=C(\C)[C@@H](O)[C@@H](OC)C(=O)[C@H](C)C[C@H](C)/C=C/C=C/C=C/1C [zotarolimus]
Outline: as §1

[4] = compound: COc1cc(C(=O)O)ccc1NC(=O)[C@@H]1N[C@@H](CC(C)(C)C)[C@](C#N)(c2ccc(Cl)cc2F)[C@H]1c1cccc(Cl)c1F [idasanutlin]
Outline: as §1

[5] = compound: COc1cc(Nc2ncc3c(n2)-c2ccc(Cl)cc2C(c2c(F)cccc2OC)=NC3)ccc1C(=O)O [alisertib]
Outline: as §1

[6] = compound: COc1cc2nc(-c3cc(F)ccc3O)nc(N[C@@H]3CNC[C@H]3C(C)(C)O)c2cc1OC
Outline: as §1

[7] = compound: COc1cc2ncnc(Nc3ccc(F)c(Cl)c3)c2cc1OCCCN1CCOCC1 [gefitinib]
Outline: as §1

[8] = compound: COc1cccc2cc(-c3nc([C@H]4CC[C@H](C(=O)O)CC4)n4ncnc(N)c34)[nH]c12
Outline: as §1

[9] = compound: CS(=O)(=O)CCNCc1ccc(-c2ccc3ncnc(Nc4ccc(OCc5cccc(F)c5)c(Cl)c4)c3c2)o1 [lapatinib]
Outline: as §1

[10] = compound: CS(=O)(=O)N1CCN(Cc2cc3nc(-c4cccc5[nH]ncc45)nc(N4CCOCC4)c3s2)CC1 [pictilisib]
Outline: as §1

Measured: log2 fold change

NRF1 isoform 4 (UniProt Q16656)
inactive: [1] 0.048 | [2] -0.054 | [3] 0.098 | [4] 0.03 | [5] -0.077 | [6] -0.135 | [7] 0.03 | [8] 0.019 | [9] -0.078 | [10] 0.167

NFU1 (UniProt Q9UMS0)
inactive: [1] -0.033 | [2] -0.083 | [3] 0.029 | [4] -0.019 | [5] -0.071 | [6] -0.036 | [7] -0.002 | [8] 0.014 | [9] -0.008 | [10] -0.03

NSL1 (UniProt Q96IY1)
inactive: [1] 0.279 | [2] -0.117 | [3] -0.061 | [4] -0.017 | [5] 0.103 | [6] -0.036 | [7] 0.137 | [8] -0.086 | [9] 0.012 | [10] 0

NME1 isoform 2 (UniProt P15531)
inactive: [1] 0.017 | [2] 0.007 | [3] 0.001 | [4] 0.022 | [5] 0.062 | [6] 0.021 | [7] -0.063 | [8] 0.141 | [9] -0.009
active: [10] 0.666

NSD3 (UniProt Q9BZ95)
inactive: [1] -0.134 | [2] 0.378 | [3] 0.076 | [4] 0.061 | [10] -0.145

Taken from above (three entries):
NSL1 (UniProt Q96IY1)
inactive: [1] 0.279 | [2] -0.117 | [3] -0.061 | [4] -0.017 | [5] 0.103 | [6] -0.036 | [7] 0.137 | [8] -0.086 | [9] 0.012 | [10] 0

NME1 isoform 2 (UniProt P15531)
inactive: [1] 0.017 | [2] 0.007 | [3] 0.001 | [4] 0.022 | [5] 0.062 | [6] 0.021 | [7] -0.063 | [8] 0.141 | [9] -0.009
active: [10] 0.666

NSD3 (UniProt Q9BZ95)
inactive: [1] -0.134 | [2] 0.378 | [3] 0.076 | [4] 0.061 | [10] -0.145

Next part:

NME7 (UniProt Q9Y5B8)
inactive: [1] -0.1 | [2] 0.124 | [3] 0.058 | [4] -0.041 | [5] 0.054 | [6] 0.015 | [8] -0.077 | [9] -0.046 | [10] 0.071

NMRAL1 (UniProt Q9HBL8)
inactive: [1] 0.678 | [2] -0.084 | [3] 0.135 | [4] -0.268 | [5] -0.099 | [6] 0.184 | [7] 0.257 | [8] 0.003 | [9] -0.003 | [10] 0.83

NME3 (UniProt Q13232)
inactive: [1] -0.014 | [2] -0.124 | [3] -0.054 | [4] -0.064 | [5] -0.05 | [6] 0.005 | [7] 0 | [8] 0.036 | [9] -0.007 | [10] 0.015

NEMF (UniProt O60524)
inactive: [1] -0.048 | [2] 0.4 | [3] 0.049 | [4] 0.193 | [5] -0.076 | [6] 0.012 | [7] -0.067 | [8] -0.319 | [9] 0.018 | [10] -0.143

NIPSNAP1 (UniProt Q9BPW8)
inactive: [1] 0.17 | [2] -0.001 | [3] 0.054 | [4] -0.071 | [5] -0.125 | [6] 0.005 | [7] 0.071 | [8] 0.087 | [9] 0.073 | [10] 0.236

NFATC4 isoform 2 (UniProt Q14934)
inactive: [1] -0.322 | [2] 0.04 | [3] -0.064 | [4] -0.039 | [5] 0.069 | [6] 0.031 | [8] 0.186 | [9] -0.26 | [10] 0.137

NEU1 (UniProt Q99519)
inactive: [1] 0.153 | [2] -0.107 | [3] 0.001 | [4] 0.015 | [5] -0.123 | [6] -0.05 | [7] -0.091 | [8] -0.073 | [9] -0.015 | [10] -0.113

NOL6 (UniProt Q9H6R4)
inactive: [1] -0.243 | [2] 0.483 | [3] 0.126 | [4] 0.298 | [5] -0.312 | [6] -0.136 | [8] -0.352 | [9] 0.148 | [10] 0.024

NME4 (UniProt O00746)
inactive: [5] -0.076 | [8] 0.16 | [10] -0.036

NOC4L (UniProt Q9BVI4)
inactive: [7] -0.13 | [10] 0.022

NEO1 (UniProt Q92859)
inactive: [4] 0.128 | [5] 0.168 | [7] 0.004 | [8] 0.13

NOTCH2 (UniProt Q04721)
inactive: [4] -0.102

NOL4L (UniProt Q96MY1)
inactive: [2] 0.104 | [7] 0.009
